Earlier results, collected in article PMC12805357, “Cooperative ligand binding in a bacterial heme-based oxygen sensor” (The Journal of Biological Chemistry, 2025).

Set-up: method as in earlier work
Settings: myoglobins; ref 7 of the supplement (Faulkner et al., 1995)

B1: hhMb: myoglobin comparison protein listed as hhMb in Table S2, literature values (protein, UniProt P68082 2-154, looked up)
Myoglobin: GLSDGEWQQVLNVWGKVEADIAGHGQEVLIRLFTGHPETLEKFDKFKHLKTEAEMKASEDLKKHGTVVLTALGGILKKKGHHEAELKPLAQSHATKHKIPIKYLEFISDAIIHVLHSKHPGDFGADAQGAMTKALELFRNDIAAKYKELGFQG
In the case of B1, the n max is listed as 0.95.
